# Reference: US20070015232A1, “Mitotic index assay” (DiscoveRx, Inc., priority 2005, published 2007)
# Some of these results come from one statement about several compounds together.
# Assays:
# [1] = tested on: CHO-K1+EA-NLS/NRS+GR-PL cells; experiment: EFC mitotic index assay, CHO-K1+EA-NLS/NRS+GR-PL cells, antibiotic selected pool (DX M19/GR pool); type: cell-based; settings: overnight treatment, titrated with increasing concentrations
# Method: In all experiments described, 20,000 cells/well were plated in a 96 well Corning clear bottom white plate in a total volume of 100 μL. The cells were treated for 24 hours with 5 μL of either the appropriate vehicle control or varying concentrations of the six compounds listed above. The next day, 100 μL of Tropix/ABI Gal screen cell lysis buffer/substrate mixture (24:1 ratio of component) was added to the cells/media and the plate was read on the Victor II luminescent plate reader at 30, 60 and 120 minutes after the lysis/substrate addition.
# The initial test of the cell cycle arresting compounds was performed on a double stable cell line having both of the constructs expressing the EA-NLS/NRS and GR-PL. (PL is β-galactosidase enzyme donor fragment and EA is the enzyme acceptor fragment available from DiscoveRx, Fremont, CA.). The parental line, C2C12 is derived from mouse muscle cells. In the experiments in which EA-NLS/NRS and GR-PL are expressed in the C2C12 parental cell line, the constructs were generated by subcloning the human GR sequence into a MFG-based retroviral vector that had been molecularly altered in a lab at Stanford. An MFG vector is described in U.S. Pat. No. 6,544,771. The EA-NLS/NRS fragment was subcloned into a wzl-based retroviral vector again molecularly altered in a lab at Stanford. […]
# [2] = tested on: Clone #69 CHO-K1 cells expressing EA-NLS/NRS and GR-PL; experiment: EFC assay in stable clone #69 (CHO-K1, EA-NLS/NRS and GR-PL) with or without RU486 pre-incubation; type: cell-based; settings: at each of the concentrations tested
# Method: In the next experiment, a stable clone (clone #69) expressing both EA-NLS/NRS and GR-PL was isolated in a CHO-K1 parental background. […] 20,000 cells/well were plated in a 96 well white coming multi-well plate and allowed to adhere overnight. The next day, the cells were washed two times with serum free F12 media and 100 μL of serum free F12 media was added to the cells. The cells were then incubated in either vehicle (ethanol-1% final concentration) or 10 μM RU486 for one hour. To the cells, three different concentrations of dexamethasone (300, 100, 30 μM) (an agonist of GR), RU486 (30, 10, 3.33 μM), colchicine (1, 0.3, 0.1 μ/mL) or nocodazole (10, 3.33, 1.11 μg/mL) were added and the incubation went overnight at 37° C. with 5% CO2. The next day, the media was aspirated off and 100 μL of Tropix/ABI Gal screen cell lysis/substrate reagent was added to the cells. The plate was read on the Victor II reader at 30, 60 and 120 minutes.
compound,measurement,setting,value
"COc1cc2c(c(OC)c1OC)-c1ccc(OC)c(=O)cc1[C@@H](NC(C)=O)CC2 [Colchicine, colchicine]",increase in EFC,[1],≤ 4 fold
same,increase in EFC activity,[2],3-4 fold
